# Reference: article PMC7819943, “Rice protein-binding microarrays: a tool to detect cis-acting elements near promoter regions in rice”
# The list shows a part of the results.
# Molecular target: T1, OsSMF1 (Oryza sativa, UniProt Q6ZLB0 1-436)
# T1 sequence: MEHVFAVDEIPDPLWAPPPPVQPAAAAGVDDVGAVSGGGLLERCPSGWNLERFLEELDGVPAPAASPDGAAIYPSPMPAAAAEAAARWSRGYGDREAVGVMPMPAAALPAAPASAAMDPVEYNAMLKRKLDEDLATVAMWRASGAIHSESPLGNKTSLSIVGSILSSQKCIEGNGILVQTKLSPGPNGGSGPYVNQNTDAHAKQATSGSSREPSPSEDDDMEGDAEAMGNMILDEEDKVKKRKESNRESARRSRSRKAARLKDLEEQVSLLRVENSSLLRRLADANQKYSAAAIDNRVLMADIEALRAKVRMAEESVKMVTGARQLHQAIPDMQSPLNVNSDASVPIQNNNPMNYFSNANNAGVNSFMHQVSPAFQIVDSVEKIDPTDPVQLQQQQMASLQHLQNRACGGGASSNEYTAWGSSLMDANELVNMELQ
# Experiment: protein-binding microarray (RPBM); PBS, 2% BSA, 51.3 ng/ul salmon testes DNA, 50 uM zinc acetate, 200 nM TF, 25 C, 1 h; high values mean tight binding
# Conditions: protein: recombinant; tags: N-terminal polyhistidine and DsRed monomer fusion (pET32a); chain copies: 2; label: CyDye5-dUTP incorporated in the synthesized complementary strand; 3' TTTTT single-stranded linker to array surface; dsDNA, one strand shown
# In short: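 Using Ni–NTA, transcription factors fused N-terminally to polyhistidine and DsRed were purified after expression in E. coli BL21-CodonPlus. These were incubated at 200 nM with a blocked, double-stranded custom Agilent array for 1 h at 25 °C in a buffer containing 50 µM zinc acetate, and the array was washed. The binding signal is per-feature fluorescence intensity (arbitrary units) on an Axon 4000B scanner.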
row,Sequence,binding signal
1,AGGCCGCCCACACTATTGGGCCGCCTCATGGACCACGTGTCGGAGTCACCTAGTGCAG,7330 fluorescence intensity (a.u.)
2,CTGGCAGTGGAGCCACCGTGTCACTGTCACCTACCAAAGCCGGAGTCACCTAGTGCAG,7780 fluorescence intensity (a.u.)
3,TCGAGTGGTCCCATATAAGTGATACGTGGACAAATAAAGTCGGAGTCACCTAGTGCAG,5520 fluorescence intensity (a.u.)
4,TAATAATAAATGACGCCGATGACGTTTAAACAATCATTCGCGGAGTCACCTAGTGCAG,7480 fluorescence intensity (a.u.)
5,TCGTTGGTTGGCCCAGTGGTGAATTGACTCAGTTGATTGCCGGAGTCACCTAGTGCAG,4550 fluorescence intensity (a.u.)
6,TCCTTACCCTATAAAATGGCCGTGTGACACATCCCAAATGCGGAGTCACCTAGTGCAG,4080 fluorescence intensity (a.u.)
7,TATGCATACGGTCAGACGTACACGTATGTCGTACACGCAACGGAGTCACCTAGTGCAG,4820 fluorescence intensity (a.u.)
8,AAAGTCCATTCAACTCACCCACGTAGGAAGGTGGAAGCGGCGGAGTCACCTAGTGCAG,3810 fluorescence intensity (a.u.)
9,CTTGAGAGTGTTTCAACTGCCACTGCGCCACGTCAGTTTACGGAGTCACCTAGTGCAG,21900 fluorescence intensity (a.u.)
10,TCGCGTGTACTGATCGCGTCAGCCTGACGTGTGATACTGACGGAGTCACCTAGTGCAG,10800 fluorescence intensity (a.u.)
11,GCGGTTTATGTACACGTCAGCATTTTGCTTCCTTCCTTCCCGGAGTCACCTAGTGCAG,47800 fluorescence intensity (a.u.)
12,TTATTAACGATGGTTTGGTTGTGAGGTGTTGGAGTCCTTTCGGAGTCACCTAGTGCAG,3300 fluorescence intensity (a.u.)
13,CTGGCGGAGGTCCTCTTCCCCACGTCGACAAGCTTCTCCTCGGAGTCACCTAGTGCAG,4160 fluorescence intensity (a.u.)
14,AACTCGTCGACAGCCCTAATGACACGTGAGGTCACATGGGCGGAGTCACCTAGTGCAG,5910 fluorescence intensity (a.u.)
15,GCATAGACCTGTTCCACGTTAGGTACGAACAGGCAGAGGCCGGAGTCACCTAGTGCAG,3140 fluorescence intensity (a.u.)
16,CTACTAATGTTTAGTTTATTGTGCTAAGCTGTCAAAATGACGGAGTCACCTAGTGCAG,4060 fluorescence intensity (a.u.)
17,CAATGCTAATACCTTCCACTGCTGACTGATTACCTTTTCTCGGAGTCACCTAGTGCAG,5200 fluorescence intensity (a.u.)
18,ACCCAACCAAACACGGACTGGGATTTGGTGACATTCTCCCCGGAGTCACCTAGTGCAG,3470 fluorescence intensity (a.u.)
19,GTGGTTTTCAAAAGTGCCACGTAATCTAAAGACGTTTGGACGGAGTCACCTAGTGCAG,8910 fluorescence intensity (a.u.)
20,CGCATCCCTCAACTCAGCGTAGAACCCACGTGAGTTCCAACGGAGTCACCTAGTGCAG,4290 fluorescence intensity (a.u.)
21,GTATGCCGTGCTGCCAAACTAGTTGGATAACAAAGATTCCCGGAGTCACCTAGTGCAG,4000 fluorescence intensity (a.u.)

# Fetched one by one from above (2):
row,Sequence,binding signal
18,ACCCAACCAAACACGGACTGGGATTTGGTGACATTCTCCCCGGAGTCACCTAGTGCAG,3470 fluorescence intensity (a.u.)
7,TATGCATACGGTCAGACGTACACGTATGTCGTACACGCAACGGAGTCACCTAGTGCAG,4820 fluorescence intensity (a.u.)

# (listing goes on)

row,Sequence,binding signal
1,TGTGACCTCGTATATCAGTAAGTATATAGATGTAGGCCTTCGGAGTCACCTAGTGCAG,3340 fluorescence intensity (a.u.)
2,TTGGGCGGTACTGAGTACTGACTCCACGTCCCTGTAACAACGGAGTCACCTAGTGCAG,6090 fluorescence intensity (a.u.)
3,CCATTCATCAACTACACCTCACTCTCTGGCGCGTCTGCCTCGGAGTCACCTAGTGCAG,4370 fluorescence intensity (a.u.)
4,TGGTCGTCTCGTCGTCATCGCCTCGTCGCCTCATCTCGATCGGAGTCACCTAGTGCAG,4540 fluorescence intensity (a.u.)
5,CTGCATGAATCTTAATTTGCGTACGCGTGTGGCATTATCTCGGAGTCACCTAGTGCAG,3190 fluorescence intensity (a.u.)
6,AAAAGGTTGGTGATGGGTTGAGCGTGGAAGCATCACCGTCCGGAGTCACCTAGTGCAG,3250 fluorescence intensity (a.u.)
7,ACCCGGTTTTGTCAGCTGACTCAGTATAGGTCCCACATGTCGGAGTCACCTAGTGCAG,4660 fluorescence intensity (a.u.)
8,TCTCTGTTCTAAAATAAAACTATTTCTATCACTTAAACTTCGGAGTCACCTAGTGCAG,3460 fluorescence intensity (a.u.)
9,TCGTCGTCGTCGTCGTCATCGTCTTCGTCCGGGGCCAGGTCGGAGTCACCTAGTGCAG,3660 fluorescence intensity (a.u.)
10,ATGAGTTTTCTGGAGAGGCGAACACGTCCGCGCCTCCGCGCGGAGTCACCTAGTGCAG,4560 fluorescence intensity (a.u.)
11,TCTACGTATGAGTCAATACCACCCATACCTGTAAGACACCCGGAGTCACCTAGTGCAG,3870 fluorescence intensity (a.u.)
12,AGAACTTCCCCTTCTCAGTGACATATGTTCCATTATCCGCCGGAGTCACCTAGTGCAG,4470 fluorescence intensity (a.u.)
13,GTATTTATAGAAGGTGAGTATACACGTGTGTATATGAGCGCGGAGTCACCTAGTGCAG,9970 fluorescence intensity (a.u.)
14,ACATATAAGCGCCACGTCAATACCACACCAGATGAAAACCCGGAGTCACCTAGTGCAG,10800 fluorescence intensity (a.u.)
15,TATCAAAACTTCATTAATTTATTACGCATGTGTAGGTAGACGGAGTCACCTAGTGCAG,31800 fluorescence intensity (a.u.)
16,ATTCCTTTTCTGCCGGGAGCCCTGGGCTACGGTACAAGAGCGGAGTCACCTAGTGCAG,23800 fluorescence intensity (a.u.)
17,AGATATATAGATTTTATTTATGACGTACTACTTGTACGTTCGGAGTCACCTAGTGCAG,5130 fluorescence intensity (a.u.)
18,AAAGTCAGAGCTGCAAAAGCGATGGGATCGAGAGCCTCGACGGAGTCACCTAGTGCAG,3920 fluorescence intensity (a.u.)
19,TCCCGTTTCCCTTTCTATATTACGTGGAGTAGCCGGGTGGCGGAGTCACCTAGTGCAG,4620 fluorescence intensity (a.u.)
20,AAACGATGACTGTTAAATAGGGATTAAAAGGAAAGGATGGCGGAGTCACCTAGTGCAG,41200 fluorescence intensity (a.u.)
21,TGAGTGGGAATGCCATGACCGTATTACGTAGGCCCGGTGACGGAGTCACCTAGTGCAG,3460 fluorescence intensity (a.u.)
